At least one structure is not confirmed: it was looked up by name or label, or the drawing left a doubt.
Test system: Caco-2 cells

Compound: CC[C@H](C)[C@H](NC(=O)[C@H](Cc1c[nH]cn1)NC(=O)[C@H](CS)NC(=O)[C@H](CCCNC(=N)N)NC(=O)[C@H](CS)NC(=O)[C@H](Cc1ccc(O)cc1)NC(=O)[C@H](CC(C)C)NC(=O)[C@H](CS)NC(=O)[C@H](CS)NC(=O)[C@H](CO)NC(=O)[C@H](C)NC(=O)CNC(=O)CNC(=O)[C@H](Cc1ccccc1)NC(=O)CNC(=O)[C@H](CO)NC(=O)CNC(=O)[C@H](CCCNC(=N)N)NC(=O)[C@H](CCCNC(=N)N)NC(=O)[C@H](CCCNC(=N)N)NC(=O)[C@H](CCC(N)=O)NC(=O)[C@H](CCCNC(=N)N)NC(=O)[C@H](CCCNC(=N)N)NC(=O)[C@H](CCCCN)NC(=O)[C@H](CCCCN)NC(=O)[C@H](CCCNC(=N)N)NC(=O)CNC(=O)[C@H](Cc1ccc(O)cc1)NC(C)=O)C(=O)N[C@@H](CC(=O)O)C(=O)N[C@@H](Cc1c[nH]cn1)C(=O)N1CCC[C@H]1C(=O)N[C@@H](CC(N)=O)C(=O)N1CCC[C@H]1C(=O)N[C@@H](CCCCN)C(=O)NCC(=O)N[C@@H](Cc1ccccc1)C(=O)N[C@@H](CS)C(=O)N[C@@H](CC(=O)O)C(=O)N[C@@H](CC(C)C)C(=O)N[C@@H](CCCCN)C(=O)NCC(=O)N[C@@H](CCCCN)C(=O)N[C@@H](Cc1ccc(O)cc1)C(N)=O [Peptide P1]
- 50% cytotoxicity (CC50): 1 µg/mL
